Results taken from article PMC11057878.
No constants are given. Whether binding was seen depends on the method and setting. In cells and extracts the contact can be indirect. Some results given as binding are weak or reduced against the parent protein; the word gives no strength.

Experiments:
Test in all cases: co-IP; HEK293T cells co-transfected with Skor and Lhx expression plasmids (pCS2+), lysed 24 h later in 10 mM Tris pH 7.4, 150 mM NaCl, 0.5% NP40; antibody (anti-HA, anti-Myc or anti-Flag) on Dynabeads protein G, 4°C for 2 h, five washes with lysis buffer; immunoblot
Lhx1b (zebrafish) = target: T1, Lhx1b (zebrafish) (UniProt O13106)
T1 sequence: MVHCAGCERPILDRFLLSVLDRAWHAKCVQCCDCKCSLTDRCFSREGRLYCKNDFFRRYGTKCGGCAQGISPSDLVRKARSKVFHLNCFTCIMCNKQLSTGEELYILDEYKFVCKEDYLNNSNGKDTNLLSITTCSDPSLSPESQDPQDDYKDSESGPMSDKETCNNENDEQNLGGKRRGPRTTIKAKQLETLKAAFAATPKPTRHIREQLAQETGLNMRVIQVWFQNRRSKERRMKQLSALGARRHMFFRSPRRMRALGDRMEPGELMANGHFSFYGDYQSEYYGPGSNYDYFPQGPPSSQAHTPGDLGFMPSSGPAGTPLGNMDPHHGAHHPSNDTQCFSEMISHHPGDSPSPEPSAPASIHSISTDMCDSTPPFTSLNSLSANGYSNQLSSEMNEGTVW

Lhx5 (zebrafish) = target: T2, Lhx5 (zebrafish) (UniProt P52889)
T2 sequence: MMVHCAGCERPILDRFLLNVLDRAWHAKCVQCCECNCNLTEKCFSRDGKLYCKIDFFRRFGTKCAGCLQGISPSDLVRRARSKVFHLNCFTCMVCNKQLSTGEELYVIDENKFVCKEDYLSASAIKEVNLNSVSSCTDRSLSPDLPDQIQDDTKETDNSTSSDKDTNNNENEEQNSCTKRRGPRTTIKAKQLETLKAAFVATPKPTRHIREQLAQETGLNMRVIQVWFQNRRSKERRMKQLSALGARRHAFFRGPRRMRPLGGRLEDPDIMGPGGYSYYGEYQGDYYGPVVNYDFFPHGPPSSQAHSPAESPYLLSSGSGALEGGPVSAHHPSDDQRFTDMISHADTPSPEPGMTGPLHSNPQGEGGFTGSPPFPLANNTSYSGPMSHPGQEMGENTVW

Lhx1a (zebrafish) = target: T3, Lhx1a (zebrafish) (UniProt Q90476)
T3 sequence: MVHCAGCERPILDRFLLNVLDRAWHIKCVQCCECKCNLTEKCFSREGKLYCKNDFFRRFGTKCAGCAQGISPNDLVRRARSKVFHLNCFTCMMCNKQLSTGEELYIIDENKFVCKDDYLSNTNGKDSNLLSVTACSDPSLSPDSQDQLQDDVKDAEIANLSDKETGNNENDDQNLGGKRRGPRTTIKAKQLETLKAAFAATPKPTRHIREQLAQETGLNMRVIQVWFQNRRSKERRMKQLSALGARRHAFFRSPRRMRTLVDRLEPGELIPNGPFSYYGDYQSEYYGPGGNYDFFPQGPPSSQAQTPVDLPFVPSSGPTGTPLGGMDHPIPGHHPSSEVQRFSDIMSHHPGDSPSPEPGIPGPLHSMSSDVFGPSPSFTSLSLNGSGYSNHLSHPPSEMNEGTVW

binding (Lhx1b (zebrafish)): binds | binding (Lhx5 (zebrafish)): binds | binding (Lhx1a (zebrafish)): binds
B1: Skor1b (protein, UniProt Q1LXZ9 1-751)
chain: MESIPNQLPAGRDSSCSPNSKDLQSYSGPPLKPNQVSETSLYGIPIVSLVIDGQERLCLAQISNTLLKNYSYNEIHNRRVALGITCVQCTPVQLEILRRAGAMPISSRRCGMITKREAERLCKSFLGAHSPPKLPENFAFDVSHECAWGSRGNFIPARYNSSRAKCIKCSFCNMYFSPNKFIFHSHRTPESKYTQPDAANFNSWRRHLKLSDKNSSDDVIHAWEDVKAMFNGGSRKRTLPIGRSESSPSQPPRGQTQGEPSDVPHKTLRCEDDRVNVTMPSSIRSYPVIPVPSKSFGMLQKIPPPLFPHPYGFPAFGLCQKKDDGEVMGEPNKTNLSGVFWPSPKDSAYTSFPMFWPTTGSLAMPTYHHAQPKPPSDVLCARHNELDVSEQSDRSTSTPKDSLLDNERCSSTQSTRNEEDKSGDESRSIEGIPPTSRKISYISAFRPVVKDVESIAKLYGNRGPYSGPRSGYMSPDFLSESSSYRSVSPDVDSVDDPDVDVESHKAHEDEECLQLSVDDRRSPHSLTLAQSEGVKGQDQENTQMHTLNDLHSTNSSETRPSDMESHGNKHTTRFEVYARERDEHVHQMSTSYFGSATTYQRETSVKDVHEEEPSSTVEEMEPKNHQDENNISEERLKEPNDVCADEEAICKDTGNRGSLIEKNIESMAKEELQKQLVEQVELRKKLEREFQNLKDSFQDQMKRELSYREEMVQQLQIVREAHDALHHFSCKMLTPRHCTGTCTFKPPLLPP
